Measurements as given in PubChem BioAssay AID1487 (National Center for Advancing Translational Sciences (NCATS), 2009).
This is one part of the list. Shown are side measurements of this screen, not its main read-out; they come without a call. The list favours compounds with an active or inconclusive main result. The note in brackets gives the kind of curve behind each potency; many fits are weak.

Assay: qHTS Assay for Modulators of Lamin A Splicing
Conditions: HeLa LMNA splicing GFP/RFP minigene ratio, 48 h
In short: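 S3 HeLa cells stably expressing lamin A-EGFP splicing minigene plus DsRed2, 600 cells/well, 48 h compound exposure at 37C. Laser-scanning cytometry; analysed as GFP (500-530 nm)/RFP (575-640 nm) total intensity ratio; 0.5% DMSO vehicle.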

[1] = measured here: GFP splicing reporter channel
[2] = measured here: RFP viability control channel

| Structure (SMILES) | AC50 [1] | AC50 [2] |
| --- | --- | --- |
| O=C1N=C(O)CN1/N=C\c1ccc(-c2ccc([N+](=O)[O-])cc2)o1 | 0.0708 µM [falling, full curve, poor fit] | 0.0631 µM [falling, full curve, poor fit] |
| COc1ccc(OC)c(CNC(=O)CCCc2cn(C)c3ccccc23)c1 | 14.1 µM [rising, partial curve, poor fit] | 14.1 µM [rising, partial curve, poor fit] |
| Cn1c(CSc2nc3ccccc3s2)nc2ccccc21 | – | 15.8 µM [rising, partial curve] |
| O=C(NCc1ccccn1)c1cc(S(=O)(=O)N2CCN(c3ccccc3)CC2)ccc1Cl | 11.2 µM [rising, single point] | 20 µM [rising, single point] |
| CCCCCCC(=O)N(O)C1CC(=O)N(c2ccc(Br)cc2)C1=O (configuration not stated) | – | 12.6 µM [rising, partial curve] |
| O=C(CCc1ccc(S(=O)(=O)N2CCOCC2)cc1)N1CCN(Cc2ccc3c(c2)OCO3)CC1 | – | 10 µM [rising, single point] |
| CC(C)Cc1cc(C(=O)Nc2sc3c(c2C#N)CCCC3)no1 | – | 0.562 µM [rising, single point] |
| Cc1c(Cl)cccc1NC(=S)NCC1COc2ccccc2O1 (configuration not stated) | 12.6 µM [falling, partial curve] | – |
| COCC(C)n1c(C)cc(C(=O)COC(=O)c2c(C)nn(-c3ccccc3)c2C)c1C (configuration not stated) | 20 µM [rising, single point] | 35.5 µM [rising, single point] |
| CCCNc1nc2c(c(=O)[nH]c(=O)n2C)n1Cc1cccc(Br)c1 | 35.5 µM [rising, single point] | 35.5 µM [rising, single point] |
| COCCn1nnnc1C(c1cccs1)N1CCN(c2nc3ccccc3s2)CC1 (configuration not stated) | – | 35.5 µM [rising, single point] |
| COCCNC(=S)N(c1ccccc1)C(C)C | – | 0.891 µM [rising, full curve] |
| Cc1ccc(C(=O)NNC(=O)c2cccs2)cc1 | 0.398 µM [rising, full curve, poor fit] | – |
| CCOC(=O)Cn1c(CN(Cc2ccccc2)Cc2ccccc2)nc2c1c(=O)n(C)c(=O)n2C | 17.8 µM [rising, single point] | 15.8 µM [rising, single point] |
| CC1(C)COC(/C=C/c2ccc([N+](=O)[O-])cc2)=N1 | 7.94 µM [falling, single point] | 5.62 µM [rising, single point] |
| COc1c(C)cc(C(=O)C2CCCN(Cc3ccc(Oc4ncccn4)cc3)C2)cc1C (configuration not stated) | 0.282 µM [falling, full curve, poor fit] | – |
| O=C(c1ccc(Cl)c(Cl)c1)N1CCC(=O)N(C(COCc2ccccc2)Cc2ccccc2)CC1 (configuration not stated) | – | 35.5 µM [rising, single point] |

| Structure (SMILES) | AC50 [1] | AC50 [2] |
| --- | --- | --- |
| Cc1cc(C)nc(-n2nc(C)c3c(C(F)(F)F)cc(=O)[nH]c32)n1 | 6.31 µM [rising, single point] | 6.31 µM [rising, single point] |
| Cc1ccc(Nc2nnc(SCC(=O)Nc3cccc(S(=O)(=O)NC4=NCCCCC4)c3)s2)cc1 | – | 31.6 µM [rising, single point] |
| Cc1cccc(-c2noc(CNC(=O)Nc3ccc(F)cc3)n2)c1 | 0.282 µM [falling, partial curve] | 0.00891 µM [falling, full curve, poor fit] |
| CC(Oc1ccc(Cl)cc1)c1ccnn1S(=O)(=O)c1ccc(Cl)cc1 (configuration not stated) | – | 35.5 µM [rising, single point] |
| Cc1c(C(N)=O)cc([N+](=O)[O-])cc1[N+](=O)[O-] | 15.8 µM [falling, single point] | 0.158 µM [rising, full curve, poor fit] |
| CS(=O)(=O)c1ccc2nc(NC(=O)Nc3cccc(Cl)c3)sc2c1 | 11.2 µM [falling, partial curve] | 11.2 µM [falling, partial curve] |
| CCOc1ccccc1CNc1ncnc2c1nc1n2CCCC1 | 35.5 µM [falling, single point] | 11.2 µM [rising, partial curve] |
| O=C(C1CCCN(S(=O)(=O)c2cccc3nonc23)C1)N1CCN(c2cccc(Cl)c2)CC1 (configuration not stated) | – | 11.2 µM [rising, partial curve] |
| O=C(Cc1cccs1)Nc1nc2ccccc2s1 | 17.8 µM [rising, partial curve, poor fit] | 15.8 µM [rising, partial curve] |
| Cc1cccc(CNc2nc(-c3cccc(NS(C)(=O)=O)c3)nc3ccccc23)c1 | 35.5 µM [falling, single point] | 35.5 µM [falling, single point] |
| O=C(/C=C/c1ccc(Cl)cc1)N1CCN(c2ccc([N+](=O)[O-])c(N3CCOCC3)c2)CC1 | – | 31.6 µM [rising, single point] |
| COc1cccc(C(=O)/C=C/c2ccc(N3CCCCC3)c([N+](=O)[O-])c2)c1 | 35.5 µM [falling, single point] | 35.5 µM [falling, single point] |
| Cc1cc(C)c2c(c1)cc(C)c1nnc(SCC(=O)Nc3ccc(S(=O)(=O)N4CCCCC4)cc3)n12 | 11.2 µM [rising, single point] | 17.8 µM [rising, partial curve] |
| CC(C)c1nc2cc3ccccc3cc2[nH]1 | 11.2 µM [rising, partial curve] | 14.1 µM [rising, single point] |
| CCOC(=O)c1cn(Cc2ccccc2)nn1 | 3.98 µM [falling, partial curve, poor fit] | 4.47 µM [falling, partial curve, poor fit] |
| CCOc1ccc(CONS(=O)(=O)c2ccc(NC(C)=O)cc2)cc1Cl | 1.78 µM [rising, full curve] | 12.6 µM [rising, partial curve] |

Given with tabs: entries from further up
Structure (SMILES)	AC50 [1]	AC50 [2]
Cc1ccc(Nc2nnc(SCC(=O)Nc3cccc(S(=O)(=O)NC4=NCCCCC4)c3)s2)cc1	–	31.6 µM [rising, single point]
Cc1cccc(-c2noc(CNC(=O)Nc3ccc(F)cc3)n2)c1	0.282 µM [falling, partial curve]	0.00891 µM [falling, full curve, poor fit]
CC(Oc1ccc(Cl)cc1)c1ccnn1S(=O)(=O)c1ccc(Cl)cc1 (configuration not stated)	–	35.5 µM [rising, single point]
Cc1c(C(N)=O)cc([N+](=O)[O-])cc1[N+](=O)[O-]	15.8 µM [falling, single point]	0.158 µM [rising, full curve, poor fit]
CS(=O)(=O)c1ccc2nc(NC(=O)Nc3cccc(Cl)c3)sc2c1	11.2 µM [falling, partial curve]	11.2 µM [falling, partial curve]
CCOc1ccccc1CNc1ncnc2c1nc1n2CCCC1	35.5 µM [falling, single point]	11.2 µM [rising, partial curve]
O=C(C1CCCN(S(=O)(=O)c2cccc3nonc23)C1)N1CCN(c2cccc(Cl)c2)CC1 (configuration not stated)	–	11.2 µM [rising, partial curve]
O=C(Cc1cccs1)Nc1nc2ccccc2s1	17.8 µM [rising, partial curve, poor fit]	15.8 µM [rising, partial curve]
Cc1cccc(CNc2nc(-c3cccc(NS(C)(=O)=O)c3)nc3ccccc23)c1	35.5 µM [falling, single point]	35.5 µM [falling, single point]
